Laboratory results: patent US20230381316A1
No constants are given. Whether binding was seen depends on the method and setting. Some results given as binding are weak or reduced against the parent protein; the word gives no strength.

Chains of the proteins cited; added tags and fusions are not shown. Lines headed by an entry give the natural chain unless they say otherwise; changes in a name come on top.
UniProt Q04609: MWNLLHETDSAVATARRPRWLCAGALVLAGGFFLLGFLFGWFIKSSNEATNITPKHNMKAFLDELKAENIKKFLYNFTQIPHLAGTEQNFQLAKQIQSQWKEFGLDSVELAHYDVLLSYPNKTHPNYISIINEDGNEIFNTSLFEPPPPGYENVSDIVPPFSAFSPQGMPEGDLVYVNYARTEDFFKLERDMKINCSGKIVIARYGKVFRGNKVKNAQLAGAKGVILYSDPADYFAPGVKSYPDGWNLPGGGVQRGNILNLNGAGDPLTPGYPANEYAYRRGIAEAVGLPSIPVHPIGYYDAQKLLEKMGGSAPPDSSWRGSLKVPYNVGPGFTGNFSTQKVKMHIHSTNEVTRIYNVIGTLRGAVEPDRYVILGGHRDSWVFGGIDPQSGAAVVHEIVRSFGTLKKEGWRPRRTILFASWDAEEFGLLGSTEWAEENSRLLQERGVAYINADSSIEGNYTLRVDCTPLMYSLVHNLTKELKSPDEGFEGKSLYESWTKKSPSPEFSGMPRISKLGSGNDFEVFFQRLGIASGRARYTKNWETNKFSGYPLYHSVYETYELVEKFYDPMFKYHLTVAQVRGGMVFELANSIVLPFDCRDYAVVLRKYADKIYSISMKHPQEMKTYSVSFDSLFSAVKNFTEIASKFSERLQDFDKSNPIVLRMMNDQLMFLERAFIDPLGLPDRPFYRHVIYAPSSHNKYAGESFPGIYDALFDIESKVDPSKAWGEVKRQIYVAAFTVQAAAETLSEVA

B1: anti-PSMA mouse monoclonal antibody #219 (antibody, V domains shown)
VH: VQLQQSGPELEKPGASVKMSCKASGYSFTGYNVNWVRQNNGKSLEWIGNIDPLHGGTTYNQKFKAKATLTVDRSSSTAYLQLKNLTSEDSAVYYCARSSRFDYWGQGTTLTVSS
VL: DIVMTQSHKFMSTSVGDRVNITCKASQDVGTAVAWYQQKPGQSPKLLIYWASTRHTGVPDRFTGSGSGTDFTLTISNVQSEDLADYFCHQFTSYPFTFGSGTSLEMKR
B2: anti-PSMA mouse monoclonal antibody #1377 (antibody, V domains shown)
VH: VQLQQPGAALVRPGASVRLSCKASGYSFTYYWMNWVMQRPGQGLEWIGMIHPSDSETRLSQKFRDKATLTVDKSSSTVYMQLNSPTSDDSAVYYCARDGNFPYYALDYWGQGTSVTVSS
VL: DVVLTQAPLSLPVSLGDQASISCRSSQSLEYSNGNTYLHWYLQKPGQSPELLIYTVSNRFSGVPDRFSGSGSGTDFTLKIHRVEAEDLGVYFCSQSTHVPTFGGGTKLEIKR
B3: anti-PSMA mouse monoclonal antibody #1366 (antibody, V domains shown)
VH: VKLQESGPGLVAPSQSLSITCTVSGFSLTDYGVSWIRQPPGKGLEWLGVIWSDGNTYYNSPLKSRLSINKDNSKSQVFLKMNSLQTDDSAMYYCARHKVYTMDYWGQGTSVTVSS
VL: TVLTQSPAIMSASPGEKVTMTCRASSSVSSSYLHWYQQKSSASPKLWIYRTSNLASGVPARFSGSGSGTSYSLTISSLEAEDAATYYCQQYSGYPLTFGAGTKLELKR
B4: anti-PSMA mouse monoclonal antibody #1352 (antibody, IgG2b, V domains shown)
VH: VKLQQSGPELEKPGASVKISCKASGYSFTGYNVNWVKQSNGKSLEWIGNIDPYHGGTTYNQKFEAKATLTVDKSSSTAYMQLKSLTSEDSAVYYCARSSRFDYWGQGTTLTVSS
VL: DIVMTQSHKFMSTSVGDRVNITCKASQDVGTAVAWYQQKPGQSPKFLIYWASTRHTGVPDRFTGSGSGTDFTLTISNVQSEDLADYFCHQYTSYPFTFGSGTKLEMKR
B5: anti-PSMA mouse monoclonal antibody #1207 (antibody, V domains shown)
VH: VKLQQSGPGLVKPSQSLSLTCAVTGYSITSDYAWNWIRKFPGNKLEWMGYISYSGRTTYNPSLESRISITRDTSKNQFFLQLNSVTTEDTATYYCARCYYGSSSRWYGMDYWGRGTSVAVSS
VL: IVLTQSPAIMSASPGVKVTMTCRASSSVDSSYLHWYQQKSGASPQVWIYSTSNLASGVPARFSGSGSGTSYSLTISSVEAEDAATYYCQQYSGYPLTFGGGTKLEIKR

target: purified recombinant human PSMA protein (PSMA extracellular domain, baculovirus-insect cell expression) (human) (UniProt Q04609); experiment: Biacore SPR

Q: With B1 as the binder, how does the binding read?
A: binds

Q: For B2, which binding is on record?
A: binds

Q: Which binding does the source give for B3 here?
A: binds

Q: How did the binding turn out when B4 was run?
A: binds

Q: With B5 as the binder, how does the binding read?
A: binds
